# Measured values as given in the supplement of paper PMC10849652.
# The chains behind the UniProt entries cited, without tags or fusion partners. Where a name states a change or a piece, a line headed by the entry shows the natural chain unless it says otherwise.
# UniProt Q3B7T1: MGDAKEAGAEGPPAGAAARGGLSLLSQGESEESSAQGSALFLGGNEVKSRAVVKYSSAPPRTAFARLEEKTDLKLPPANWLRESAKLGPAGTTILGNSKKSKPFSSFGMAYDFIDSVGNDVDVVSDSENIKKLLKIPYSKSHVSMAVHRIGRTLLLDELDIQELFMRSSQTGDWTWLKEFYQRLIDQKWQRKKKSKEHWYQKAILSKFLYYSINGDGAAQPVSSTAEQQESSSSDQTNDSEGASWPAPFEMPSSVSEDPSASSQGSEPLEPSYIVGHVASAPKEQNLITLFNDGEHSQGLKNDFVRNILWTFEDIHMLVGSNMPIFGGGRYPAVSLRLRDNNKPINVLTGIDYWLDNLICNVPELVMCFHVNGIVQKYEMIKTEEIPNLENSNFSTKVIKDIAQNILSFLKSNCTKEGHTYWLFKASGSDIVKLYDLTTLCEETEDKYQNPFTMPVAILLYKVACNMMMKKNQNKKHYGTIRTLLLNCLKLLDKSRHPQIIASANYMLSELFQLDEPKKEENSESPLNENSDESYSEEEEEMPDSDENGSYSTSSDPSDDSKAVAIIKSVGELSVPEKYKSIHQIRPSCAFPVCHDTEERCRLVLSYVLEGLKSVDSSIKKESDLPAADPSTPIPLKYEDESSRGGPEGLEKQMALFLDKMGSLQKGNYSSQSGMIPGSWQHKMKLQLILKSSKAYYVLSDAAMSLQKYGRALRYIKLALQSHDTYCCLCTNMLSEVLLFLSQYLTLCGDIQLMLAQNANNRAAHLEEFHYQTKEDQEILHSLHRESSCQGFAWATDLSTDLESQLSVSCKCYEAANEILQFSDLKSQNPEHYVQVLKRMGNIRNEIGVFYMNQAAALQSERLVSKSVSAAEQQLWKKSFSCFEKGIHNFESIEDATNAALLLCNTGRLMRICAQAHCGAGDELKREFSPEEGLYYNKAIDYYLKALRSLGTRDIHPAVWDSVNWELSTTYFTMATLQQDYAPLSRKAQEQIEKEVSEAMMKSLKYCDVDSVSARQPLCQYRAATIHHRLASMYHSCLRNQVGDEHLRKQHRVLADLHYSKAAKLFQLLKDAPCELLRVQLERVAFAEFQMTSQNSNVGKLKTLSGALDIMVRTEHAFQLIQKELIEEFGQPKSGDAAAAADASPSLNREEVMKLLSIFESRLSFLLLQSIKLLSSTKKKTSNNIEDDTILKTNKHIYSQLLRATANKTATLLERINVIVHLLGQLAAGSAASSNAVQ
# UniProt Q96EV8: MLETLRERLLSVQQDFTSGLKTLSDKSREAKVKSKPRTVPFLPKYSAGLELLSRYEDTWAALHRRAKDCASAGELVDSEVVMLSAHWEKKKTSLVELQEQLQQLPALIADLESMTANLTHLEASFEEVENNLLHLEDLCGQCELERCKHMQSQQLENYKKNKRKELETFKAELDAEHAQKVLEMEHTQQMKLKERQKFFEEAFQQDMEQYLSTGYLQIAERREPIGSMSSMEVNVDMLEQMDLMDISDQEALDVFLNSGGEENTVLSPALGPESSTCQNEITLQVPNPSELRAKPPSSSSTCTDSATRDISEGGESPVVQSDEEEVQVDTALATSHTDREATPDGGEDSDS
# UniProt Q05639, whole entry, looked up: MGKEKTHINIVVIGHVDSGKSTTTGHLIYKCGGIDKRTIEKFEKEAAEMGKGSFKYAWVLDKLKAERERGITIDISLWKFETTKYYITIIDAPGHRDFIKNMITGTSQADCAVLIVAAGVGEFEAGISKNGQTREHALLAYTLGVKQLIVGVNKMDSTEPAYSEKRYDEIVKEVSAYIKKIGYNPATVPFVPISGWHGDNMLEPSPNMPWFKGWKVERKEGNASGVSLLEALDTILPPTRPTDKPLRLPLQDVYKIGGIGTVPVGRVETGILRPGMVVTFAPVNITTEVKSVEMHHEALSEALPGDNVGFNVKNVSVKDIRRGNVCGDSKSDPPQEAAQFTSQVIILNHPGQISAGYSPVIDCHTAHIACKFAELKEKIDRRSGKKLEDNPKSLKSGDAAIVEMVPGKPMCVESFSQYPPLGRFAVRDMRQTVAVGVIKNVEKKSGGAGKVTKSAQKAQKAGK
# UniProt O95620: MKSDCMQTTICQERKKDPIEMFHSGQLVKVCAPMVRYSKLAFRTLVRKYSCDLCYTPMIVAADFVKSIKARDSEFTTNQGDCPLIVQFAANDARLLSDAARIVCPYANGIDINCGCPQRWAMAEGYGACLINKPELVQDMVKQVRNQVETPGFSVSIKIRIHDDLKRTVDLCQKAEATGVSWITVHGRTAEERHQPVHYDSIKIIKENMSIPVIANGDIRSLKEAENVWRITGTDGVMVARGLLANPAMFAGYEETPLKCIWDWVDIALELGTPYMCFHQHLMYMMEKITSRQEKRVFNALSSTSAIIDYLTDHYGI
# UniProt Q92785, whole entry, looked up: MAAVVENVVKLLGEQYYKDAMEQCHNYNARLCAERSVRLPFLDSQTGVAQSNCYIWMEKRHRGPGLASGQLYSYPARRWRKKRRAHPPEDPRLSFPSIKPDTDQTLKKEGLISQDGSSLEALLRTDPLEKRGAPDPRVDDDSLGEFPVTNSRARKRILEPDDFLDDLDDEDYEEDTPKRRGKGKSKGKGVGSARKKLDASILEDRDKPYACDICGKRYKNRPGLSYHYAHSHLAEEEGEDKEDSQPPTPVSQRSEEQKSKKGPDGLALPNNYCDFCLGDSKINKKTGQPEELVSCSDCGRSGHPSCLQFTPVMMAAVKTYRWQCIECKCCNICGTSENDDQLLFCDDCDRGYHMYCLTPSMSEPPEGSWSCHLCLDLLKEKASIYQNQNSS
# UniProt P60981: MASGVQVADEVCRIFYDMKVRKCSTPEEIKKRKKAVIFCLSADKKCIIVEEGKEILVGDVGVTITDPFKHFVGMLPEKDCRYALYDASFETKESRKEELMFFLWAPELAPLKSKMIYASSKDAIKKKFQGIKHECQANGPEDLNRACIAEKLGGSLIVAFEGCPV
# UniProt Q6P1R4: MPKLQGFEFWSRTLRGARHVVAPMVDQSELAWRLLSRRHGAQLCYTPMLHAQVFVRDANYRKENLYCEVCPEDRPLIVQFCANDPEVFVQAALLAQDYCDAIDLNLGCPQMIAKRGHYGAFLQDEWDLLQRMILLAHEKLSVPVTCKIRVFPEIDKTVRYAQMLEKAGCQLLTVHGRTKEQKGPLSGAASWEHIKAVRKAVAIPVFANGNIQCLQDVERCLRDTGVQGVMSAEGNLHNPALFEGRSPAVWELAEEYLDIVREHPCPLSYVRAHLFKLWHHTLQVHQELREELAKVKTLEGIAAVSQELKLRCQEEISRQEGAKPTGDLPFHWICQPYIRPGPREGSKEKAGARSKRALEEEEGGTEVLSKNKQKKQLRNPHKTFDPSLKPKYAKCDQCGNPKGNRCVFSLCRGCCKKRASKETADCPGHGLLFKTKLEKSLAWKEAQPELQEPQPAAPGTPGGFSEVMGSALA
# UniProt Q99848: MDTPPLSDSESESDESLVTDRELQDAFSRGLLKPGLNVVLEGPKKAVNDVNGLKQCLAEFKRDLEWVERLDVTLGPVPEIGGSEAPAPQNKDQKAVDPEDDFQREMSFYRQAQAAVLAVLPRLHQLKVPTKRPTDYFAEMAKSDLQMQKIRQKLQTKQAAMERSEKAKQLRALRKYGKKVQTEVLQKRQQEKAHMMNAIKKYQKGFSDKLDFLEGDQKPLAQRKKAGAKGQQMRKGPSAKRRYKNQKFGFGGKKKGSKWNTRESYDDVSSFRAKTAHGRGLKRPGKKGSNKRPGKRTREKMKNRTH
# UniProt Q5VYK3, whole entry, looked up: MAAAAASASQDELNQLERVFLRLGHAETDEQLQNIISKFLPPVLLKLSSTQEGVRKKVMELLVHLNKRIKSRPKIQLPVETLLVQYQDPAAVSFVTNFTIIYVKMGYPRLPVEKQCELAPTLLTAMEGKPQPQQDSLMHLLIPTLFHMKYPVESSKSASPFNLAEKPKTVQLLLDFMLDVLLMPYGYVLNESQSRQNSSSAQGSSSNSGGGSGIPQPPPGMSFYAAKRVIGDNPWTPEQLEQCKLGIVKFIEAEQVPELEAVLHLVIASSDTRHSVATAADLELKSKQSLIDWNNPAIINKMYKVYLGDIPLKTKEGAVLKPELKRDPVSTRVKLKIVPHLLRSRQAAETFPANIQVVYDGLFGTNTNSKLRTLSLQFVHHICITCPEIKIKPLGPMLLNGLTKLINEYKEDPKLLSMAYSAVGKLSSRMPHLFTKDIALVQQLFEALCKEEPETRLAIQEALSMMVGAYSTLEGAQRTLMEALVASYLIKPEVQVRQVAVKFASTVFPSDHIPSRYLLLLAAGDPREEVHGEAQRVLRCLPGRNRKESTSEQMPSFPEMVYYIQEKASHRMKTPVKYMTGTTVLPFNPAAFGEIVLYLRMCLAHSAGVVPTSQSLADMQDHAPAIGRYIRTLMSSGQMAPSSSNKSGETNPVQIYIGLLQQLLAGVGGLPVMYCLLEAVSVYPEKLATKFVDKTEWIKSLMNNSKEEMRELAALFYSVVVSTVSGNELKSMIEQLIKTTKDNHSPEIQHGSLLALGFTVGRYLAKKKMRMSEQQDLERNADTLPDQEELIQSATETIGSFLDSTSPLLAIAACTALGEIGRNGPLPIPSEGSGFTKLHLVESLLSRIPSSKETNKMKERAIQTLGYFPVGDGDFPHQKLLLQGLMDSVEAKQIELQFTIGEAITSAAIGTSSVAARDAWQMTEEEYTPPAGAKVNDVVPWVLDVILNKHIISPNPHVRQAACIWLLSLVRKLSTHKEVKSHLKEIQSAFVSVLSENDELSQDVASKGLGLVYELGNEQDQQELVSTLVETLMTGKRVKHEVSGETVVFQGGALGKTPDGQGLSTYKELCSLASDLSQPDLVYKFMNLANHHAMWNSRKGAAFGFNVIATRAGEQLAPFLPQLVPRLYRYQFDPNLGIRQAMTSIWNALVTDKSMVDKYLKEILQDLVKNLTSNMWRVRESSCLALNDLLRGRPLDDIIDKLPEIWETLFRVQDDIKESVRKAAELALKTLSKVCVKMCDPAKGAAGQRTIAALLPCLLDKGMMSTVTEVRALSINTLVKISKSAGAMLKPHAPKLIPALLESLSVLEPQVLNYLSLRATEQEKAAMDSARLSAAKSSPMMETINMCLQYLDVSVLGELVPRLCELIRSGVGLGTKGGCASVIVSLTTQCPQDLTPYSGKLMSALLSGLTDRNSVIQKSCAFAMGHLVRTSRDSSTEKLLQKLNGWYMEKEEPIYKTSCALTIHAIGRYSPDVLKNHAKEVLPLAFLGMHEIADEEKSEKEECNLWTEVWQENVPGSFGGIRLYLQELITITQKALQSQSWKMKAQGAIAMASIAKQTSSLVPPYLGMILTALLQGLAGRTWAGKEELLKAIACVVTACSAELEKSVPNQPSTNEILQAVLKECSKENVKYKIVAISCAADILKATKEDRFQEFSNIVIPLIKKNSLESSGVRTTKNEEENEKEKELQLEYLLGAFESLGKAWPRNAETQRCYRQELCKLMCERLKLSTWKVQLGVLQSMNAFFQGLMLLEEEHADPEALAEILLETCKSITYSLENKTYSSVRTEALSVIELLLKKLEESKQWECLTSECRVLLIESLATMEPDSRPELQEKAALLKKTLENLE
# UniProt Q16254: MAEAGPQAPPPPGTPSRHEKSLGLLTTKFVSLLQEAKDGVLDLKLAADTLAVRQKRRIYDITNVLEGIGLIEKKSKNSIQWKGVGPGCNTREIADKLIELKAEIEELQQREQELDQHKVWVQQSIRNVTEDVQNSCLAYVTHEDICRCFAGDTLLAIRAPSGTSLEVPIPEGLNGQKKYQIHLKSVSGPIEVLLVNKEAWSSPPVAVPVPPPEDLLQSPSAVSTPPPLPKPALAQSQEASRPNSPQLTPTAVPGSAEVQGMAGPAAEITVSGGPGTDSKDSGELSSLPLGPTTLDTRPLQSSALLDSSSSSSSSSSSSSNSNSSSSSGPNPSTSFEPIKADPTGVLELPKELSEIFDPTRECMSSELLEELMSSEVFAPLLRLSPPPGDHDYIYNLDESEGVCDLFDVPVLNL
# UniProt O75521: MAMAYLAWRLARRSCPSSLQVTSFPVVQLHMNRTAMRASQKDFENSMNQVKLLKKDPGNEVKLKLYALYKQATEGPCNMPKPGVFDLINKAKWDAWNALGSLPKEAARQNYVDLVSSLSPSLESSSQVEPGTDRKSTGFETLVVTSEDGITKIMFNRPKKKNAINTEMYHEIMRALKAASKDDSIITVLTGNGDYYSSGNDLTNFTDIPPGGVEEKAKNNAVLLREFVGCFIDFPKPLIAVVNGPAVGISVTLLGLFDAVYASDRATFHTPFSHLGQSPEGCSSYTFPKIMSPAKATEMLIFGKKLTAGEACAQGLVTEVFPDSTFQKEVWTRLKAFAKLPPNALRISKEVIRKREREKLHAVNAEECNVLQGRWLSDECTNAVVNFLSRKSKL
# UniProt Q8WWZ3: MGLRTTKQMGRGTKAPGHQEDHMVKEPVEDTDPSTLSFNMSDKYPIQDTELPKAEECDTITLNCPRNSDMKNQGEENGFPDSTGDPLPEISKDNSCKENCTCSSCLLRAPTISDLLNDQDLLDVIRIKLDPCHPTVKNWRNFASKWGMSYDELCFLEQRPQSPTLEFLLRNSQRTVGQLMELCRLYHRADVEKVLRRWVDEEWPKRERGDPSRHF
# Some of the results follow.
# Assays:
# Assay in all cases: log2 fold change, soluble protein after heating vs DMSO (PISA); higher = thermal stabilisation; K562 lysate, 10 uM; active = over 0.2 and 3.5 SD of the protein, either way, in both replicates (recomputed)
# vemurafenib = compound: CCCS(=O)(=O)Nc1ccc(F)c(C(=O)c2c[nH]c3ncc(-c4ccc(Cl)cc4)cc23)c1F [vemurafenib]
# Summary of the method: (§1)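 Soluble protein was defined as the supernatant remaining after 21,000xg for 90 min, following pooling of heated aliquots and adjustment to 0.5% NP-40 at 4°C. Before that, crude K562 extract at 1 mg/mL protein in PBS pH 7.4 with 1 mM MgCl2 was treated with 10 μM compound for 30 min and heated for 3 min across 48°C-58°C. Quantification used TMTpro 16plex LC-MS/MS with channel sums equalised, and values are log-two fold changes in thermal stability relative to solvent controls from duplicates.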
# [1] = compound: CCCS(=O)(=O)Nc1ccc(F)c(C(=O)c2c[nH]c3ncc(Cl)cc23)c1F
# Summary of the method: as §1
# barasertib = compound: CCN(CCCOc1ccc2c(Nc3cc(CC(=O)Nc4cccc(F)c4)[nH]n3)ncnc2c1)CCOP(=O)(O)O [barasertib]
# Summary of the method: as §1
# [2] = compound: CC[C@@H]1C(=O)N(C)c2cnc(Nc3ccc(C(=O)NC4CCN(C)CC4)cc3OC)nc2N1C1CCCC1
# Summary of the method: as §1
# volasertib = compound: CC[C@@H]1C(=O)N(C)c2cnc(Nc3ccc(C(=O)N[C@H]4CC[C@H](N5CCN(CC6CC6)CC5)CC4)cc3OC)nc2N1C(C)C [volasertib]
# Summary of the method: as §1
# [3] = compound: CCn1c(C(=O)N(C2CC2)C2CC2)cc2c3c(ncn3C)c(Nc3cc(C)n(C)n3)nc21
# Summary of the method: as §1
# [4] = compound: CCn1cc(-c2ccnc3[nH]c(-c4cccc(CN(C)C)c4)cc23)c(-c2ccc(NC(=O)N(C)C)cc2)n1
# Summary of the method: as §1
# [5] = compound: CN1CCC(CNc2ccc3ncc(-c4cccc(OC(F)(F)F)c4)n3n2)CC1
# Summary of the method: as §1
# saracatinib = compound: CN1CCN(CCOc2cc(OC3CCOCC3)c3c(Nc4c(Cl)ccc5c4OCO5)ncnc3c2)CC1 [saracatinib]
# Summary of the method: as §1
# sotrastaurin = compound: CN1CCN(c2nc(C3=C(c4c[nH]c5ccccc45)C(=O)NC3=O)c3ccccc3n2)CC1 [sotrastaurin]
# Summary of the method: as §1
# alvocidib = compound: CN1CC[C@H](c2c(O)cc(O)c3c(=O)cc(-c4ccccc4Cl)oc23)[C@H](O)C1 [alvocidib]
# Summary of the method: as §1
# Tubastatin A = compound: CN1CCc2c(c3ccccc3n2Cc2ccc(C(=O)NO)cc2)C1 [Tubastatin A]
# Summary of the method: as §1
# [6] = compound: CNC(=O)C1=CC=CC=C1NC2=NC(=NC=C2Cl)NC3=C(C=C(C=C3)N4CCOCC4)OC
# Summary of the method: as §1
# defactinib = compound: CNC(=O)c1ccc(Nc2ncc(C(F)(F)F)c(NCc3nccnc3N(C)S(C)(=O)=O)n2)cc1 [defactinib]
# Summary of the method: as §1
# [7] = compound: CNc1nc(-c2ccc3c(N)n[nH]c3c2)cc(N2C[C@@H](C(=O)NC3CCCCC3)CC[C@H]2C)n1
# Summary of the method: as §1
# encorafenib = compound: COC(=O)N[C@@H](C)CNc1nccc(-c2cn(C(C)C)nc2-c2cc(Cl)cc(NS(C)(=O)=O)c2F)n1 [encorafenib]
# Summary of the method: as §1
# [8] = compound: COC(=O)[C@H](CCSC)NC(=O)C1=C(C=C(C=C1)NC[C@H](CS)N)C2=CC=CC=C2
# Summary of the method: as §1
# alisertib = compound: COc1cc(Nc2ncc3c(n2)-c2ccc(Cl)cc2C(c2c(F)cccc2OC)=NC3)ccc1C(=O)O [alisertib]
# Summary of the method: as §1
# [9] = compound: COc1cc2nc(-c3cc(F)ccc3O)nc(N[C@@H]3CNC[C@H]3C(C)(C)O)c2cc1OC
# Summary of the method: as §1
# gefitinib = compound: COc1cc2ncnc(Nc3ccc(F)c(Cl)c3)c2cc1OCCCN1CCOCC1 [gefitinib]
# Summary of the method: as §1
Target,log2 fold change (vemurafenib),log2 fold change [1],log2 fold change (barasertib),log2 fold change [2],log2 fold change (volasertib),log2 fold change [3],log2 fold change [4],log2 fold change [5],log2 fold change (saracatinib),log2 fold change (sotrastaurin),log2 fold change (alvocidib),log2 fold change (Tubastatin A),log2 fold change [6],log2 fold change (defactinib),log2 fold change [7],log2 fold change (encorafenib),log2 fold change [8],log2 fold change (alisertib),log2 fold change [9],log2 fold change (gefitinib)
EDRF1 (UniProt Q3B7T1),inactive: -0.074,inactive: -0.043,inactive: 0.032,inactive: -0.183,inactive: -0.008,inactive: -0.026,inactive: 0.045,inactive: -0.106,inactive: 0.046,inactive: -0.006,inactive: -0.005,inactive: 0.041,inactive: 0.092,inactive: 0.099,inactive: 0.133,inactive: 0.043,inactive: 0.056,inactive: 0.1,inactive: 0.011,inactive: -0.023
DTNBP1 (UniProt Q96EV8),inactive: 0.086,inactive: -0.005,inactive: -0.028,inactive: 0.028,inactive: 0.002,inactive: 0.019,inactive: -0.001,inactive: 0.022,inactive: 0.002,inactive: 0.029,inactive: -0.034,inactive: 0.024,inactive: -0.008,inactive: -0.057,inactive: 0.002,inactive: -0.051,inactive: -0.035,inactive: 0.002,inactive: 0.009,inactive: 0.014
EFCAB14 (UniProt O75071),inactive: 0.022,inactive: 0.001,inactive: -0.01,inactive: 0.039,inactive: 0.008,inactive: -0.042,inactive: -0.058,inactive: 0.047,inactive: 0.023,inactive: 0.005,inactive: -0.056,inactive: 0.077,inactive: 0.01,inactive: -0.007,inactive: -0.058,inactive: 0.038,inactive: -0.086,inactive: 0.063,inactive: 0.012,inactive: -0.131
EEF1A2 (UniProt Q05639),inactive: 0.005,inactive: 0.012,inactive: -0.024,inactive: -0.014,inactive: -0.024,inactive: -0.001,inactive: -0.048,inactive: -0.012,inactive: 0.046,inactive: -0.022,inactive: 0.02,inactive: -0.029,inactive: -0.005,inactive: -0.018,inactive: 0.044,inactive: -0.031,inactive: 0.136,inactive: 0.064,inactive: 0.007,inactive: 0.007
DUS4L (UniProt O95620),inactive: 0.039,inactive: 0.056,inactive: -0.01,inactive: 0.033,inactive: -0.017,inactive: 0.045,inactive: -0.138,inactive: 0,inactive: 0.06,inactive: -0.032,inactive: 0.001,inactive: -0.012,inactive: -0.028,inactive: 0.024,inactive: 0.079,inactive: 0.06,inactive: -0.006,inactive: -0.03,inactive: 0.053,inactive: 0.057
DPF2 (UniProt Q92785),inactive: 0.039,inactive: 0.049,inactive: 0.025,inactive: -0.037,inactive: 0.013,inactive: 0.006,inactive: 0.042,inactive: -0.045,inactive: 0.024,inactive: -0.018,inactive: 0.035,inactive: 0.025,inactive: 0.028,inactive: 0.033,inactive: 0.064,inactive: 0.057,inactive: -0.04,inactive: -0.033,inactive: 0.021,inactive: -0.012
DSTN (UniProt P60981),inactive: -0.006,inactive: -0.002,inactive: -0.005,inactive: -0.015,inactive: -0.013,inactive: 0.015,inactive: 0.025,inactive: 0.035,inactive: -0.005,inactive: -0.011,inactive: -0.011,inactive: -0.089,inactive: 0.015,inactive: 0.002,inactive: -0.072,inactive: -0.011,inactive: -0.071,inactive: -0.013,inactive: -0.02,inactive: -0.043
EDEM1 (UniProt Q92611),inactive: -0.052,inactive: 0.003,inactive: -0.049,inactive: -0.143,inactive: -0.006,inactive: -0.031,inactive: -0.024,inactive: -0.012,inactive: 0.044,inactive: -0.008,inactive: 0.053,inactive: 0.102,inactive: -0.005,inactive: 0.023,inactive: -0.019,inactive: 0.109,inactive: 0.017,inactive: 0.057,inactive: 0.028,inactive: -0.002
DUS1L (UniProt Q6P1R4),inactive: -0.049,inactive: -0.019,inactive: 0.02,inactive: -0.053,inactive: 0.011,inactive: -0.002,inactive: 0.137,inactive: 0.092,inactive: -0.067,inactive: 0.046,inactive: -0.018,inactive: -0.149,inactive: -0.075,inactive: -0.019,inactive: 0.007,inactive: -0.01,inactive: 0.04,inactive: -0.034,inactive: 0.046,inactive: -0.02
DYNC1LI2 (UniProt O43237),inactive: -0.007,inactive: -0.012,inactive: 0.004,inactive: 0.048,inactive: -0.008,inactive: -0.067,inactive: -0.036,inactive: -0.032,inactive: 0.001,inactive: -0.031,inactive: 0.014,inactive: 0.097,inactive: 0.018,inactive: -0.042,inactive: 0.037,inactive: 0.016,inactive: 0.018,inactive: -0.04,inactive: 0.048,inactive: 0.085
EBNA1BP2 (UniProt Q99848),inactive: -0.014,inactive: 0.011,inactive: -0.005,inactive: 0.023,inactive: -0.02,inactive: -0.006,inactive: -0.038,inactive: -0.001,inactive: 0.017,inactive: -0.018,inactive: 0.011,inactive: -0.003,inactive: -0.011,inactive: 0.019,inactive: 0.006,inactive: 0.018,inactive: -0.021,inactive: -0.01,inactive: 0.007,inactive: -0.027
ECPAS (UniProt Q5VYK3),inactive: 0.002,inactive: 0.007,inactive: 0.031,inactive: -0.028,inactive: -0.049,inactive: 0.022,inactive: 0.024,inactive: -0.052,inactive: 0.002,inactive: 0.026,inactive: 0.019,inactive: 0.012,inactive: 0.014,inactive: 0.003,inactive: -0.013,inactive: 0.012,inactive: -0.039,inactive: 0.004,inactive: 0.006,inactive: -0.004
E2F4 (UniProt Q16254),inactive: -0.035,inactive: 0.007,inactive: 0.101,inactive: 0.009,inactive: 0.011,inactive: -0.025,inactive: -0.01,inactive: -0.092,inactive: -0.049,inactive: 0.04,inactive: 0.003,inactive: -0.081,inactive: 0.059,inactive: 0.033,inactive: -0.016,inactive: 0.044,inactive: -0.089,inactive: 0.01,inactive: -0.038,inactive: 0.069
ECI2 (UniProt O75521),inactive: 0.071,inactive: 0.013,inactive: 0.007,inactive: 0.059,inactive: -0.013,inactive: 0.004,inactive: -0.021,inactive: -0.017,inactive: -0.003,inactive: -0.045,inactive: -0.033,inactive: 0.054,inactive: -0.054,inactive: -0.038,inactive: 0.03,inactive: -0.006,inactive: -0.067,inactive: 0.004,inactive: -0.008,inactive: 0.011
EEF1G isoform 2 (UniProt P26641),inactive: -0.047,inactive: -0.021,inactive: 0,inactive: -0.081,inactive: -0.028,inactive: 0.016,inactive: 0.03,inactive: -0.12,inactive: -0.02,inactive: 0.007,inactive: 0.014,inactive: -0.053,inactive: -0.015,inactive: 0.008,inactive: -0.028,inactive: -0.027,inactive: 0.002,inactive: 0.009,inactive: -0.014,inactive: -0.008
EDARADD (UniProt Q8WWZ3),inactive: -0.066,inactive: 0.02,active: 0.255,inactive: -0.023,inactive: -0.006,inactive: -0.011,inactive: -0.14,inactive: 0.057,inactive: 0.04,inactive: -0.074,inactive: -0.015,inactive: -0.003,inactive: 0.019,inactive: 0.009,inactive: -0.068,inactive: 0.013,inactive: -0.072,inactive: -0.075,inactive: 0.027,inactive: 0.043
